This passage reports log2FC results from ChEMBL document CHEMBL5674883, “The Heterochromatin Landscape in Migrating Cells and the Importance of H3K27me3 for Associated Transcriptome Alterations” (Cells, 2018).

The chains behind the UniProt entries cited, without tags or fusion partners.
UniProt Q61188, whole entry: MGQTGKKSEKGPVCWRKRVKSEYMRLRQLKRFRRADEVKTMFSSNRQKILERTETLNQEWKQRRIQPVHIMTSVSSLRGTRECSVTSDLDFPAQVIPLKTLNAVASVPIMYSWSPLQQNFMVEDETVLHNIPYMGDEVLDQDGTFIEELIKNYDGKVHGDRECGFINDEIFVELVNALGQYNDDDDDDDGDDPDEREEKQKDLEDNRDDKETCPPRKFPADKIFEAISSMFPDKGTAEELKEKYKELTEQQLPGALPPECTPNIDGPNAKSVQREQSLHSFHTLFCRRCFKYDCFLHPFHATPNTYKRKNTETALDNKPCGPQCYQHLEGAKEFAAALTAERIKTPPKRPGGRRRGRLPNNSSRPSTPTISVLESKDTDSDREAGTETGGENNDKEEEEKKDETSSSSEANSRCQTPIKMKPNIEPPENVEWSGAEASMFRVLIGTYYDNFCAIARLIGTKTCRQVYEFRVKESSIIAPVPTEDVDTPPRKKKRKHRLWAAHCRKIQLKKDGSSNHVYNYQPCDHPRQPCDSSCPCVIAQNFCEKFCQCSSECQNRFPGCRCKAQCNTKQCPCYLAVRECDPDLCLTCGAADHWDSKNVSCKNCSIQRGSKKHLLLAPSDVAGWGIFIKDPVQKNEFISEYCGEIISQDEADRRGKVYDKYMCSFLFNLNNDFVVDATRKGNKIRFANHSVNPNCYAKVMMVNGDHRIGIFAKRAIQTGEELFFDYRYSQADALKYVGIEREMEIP

SMILES strings stand for the structures. The source gives many values for each of these; only a part stands here.

What all share (assay type): cell-based
Assay [1] deals with T1, RNA polymerase II (Mus musculus) (UniProt P08775+Q8CFI7+P97760+A0A3Q4L2S8+Q80UW8+P61219+P62488+Q923G2+P60898+O08740+Q63871+P62876). Nature of the assay: Inhibition of RNA polymerase II in mouse B16-F1 migrating cells assessed as fold change in Pla2g2e-RNA stability at 0.1 mM measured by ChIP-seq analysis relative to control cells.
Assay [2] has as its target T1, RNA polymerase II (Mus musculus). Nature of the assay: Inhibition of RNA polymerase II in mouse B16-F1 migrating cells assessed as fold change in Cst6-RNA stability at 0.1 mM measured by ChIP-seq analysis relative to control cells.
Assay [3] shares this target. Nature of the assay: Inhibition of RNA polymerase II in mouse B16-F1 migrating cells assessed as fold change in Aes-RNA stability at 0.1 mM measured by ChIP-seq analysis relative to control cells.
Assay [4] shares this target. Nature of the assay: Inhibition of RNA polymerase II in mouse B16-F1 migrating cells assessed as fold change in Hmox2-RNA stability at 0.1 mM measured by ChIP-seq analysis relative to control cells.
Assay [5] shares this target. Nature of the assay: Inhibition of RNA polymerase II in mouse B16-F1 migrating cells assessed as fold change in Ppfibp1-RNA stability at 0.1 mM measured by ChIP-seq analysis relative to control cells.
The target is the same in assay [6]. The experiment in a line: Inhibition of RNA polymerase II in mouse B16-F1 migrating cells assessed as fold change in Brcc3-RNA stability at 0.1 mM measured by ChIP-seq analysis relative to control cells.
The target is the same in assay [7]. Nature of the assay: Inhibition of RNA polymerase II in mouse B16-F1 migrating cells assessed as fold change in Creb1-RNA stability at 0.1 mM measured by ChIP-seq analysis relative to control cells.
Assay [8] shares this target. Nature of the assay: Inhibition of RNA polymerase II in mouse B16-F1 migrating cells assessed as fold change in Picalm-RNA stability at 0.1 mM measured by ChIP-seq analysis relative to control cells.
For assay [9] the target is unchanged. The experiment in a line: Inhibition of RNA polymerase II in mouse B16-F1 migrating cells assessed as fold change in Phf3-RNA stability at 0.1 mM measured by ChIP-seq analysis relative to control cells.
Assay [10] shares this target. Nature of the assay: Inhibition of RNA polymerase II in mouse B16-F1 migrating cells assessed as fold change in Rbm15-RNA stability at 0.1 mM measured by ChIP-seq analysis relative to control cells.
Assay [11] has the same target. Nature of the assay: Inhibition of RNA polymerase II in mouse B16-F1 migrating cells assessed as fold change in Timm21-RNA stability at 0.1 mM measured by ChIP-seq analysis relative to control cells.
Assay [12] has the same target. Nature of the assay: Inhibition of RNA polymerase II in mouse B16-F1 migrating cells assessed as fold change in Ccp110-RNA stability at 0.1 mM measured by ChIP-seq analysis relative to control cells.
Assay [13] has the same target. The experiment in a line: Inhibition of RNA polymerase II in mouse B16-F1 migrating cells assessed as fold change in Ccnf-RNA stability at 0.1 mM measured by ChIP-seq analysis relative to control cells.
The target is the same in assay [14]. Nature of the assay: Inhibition of RNA polymerase II in mouse B16-F1 migrating cells assessed as fold change in Trnt1-RNA stability at 0.1 mM measured by ChIP-seq analysis relative to control cells.
Assay [15] has the same target. The experiment in a line: Inhibition of RNA polymerase II in mouse B16-F1 migrating cells assessed as fold change in Cdc40-RNA stability at 0.1 mM measured by ChIP-seq analysis relative to control cells.
The target is the same in assay [16]. The experiment in a line: Inhibition of RNA polymerase II in mouse B16-F1 migrating cells assessed as fold change in Ift80-RNA stability at 0.1 mM measured by ChIP-seq analysis relative to control cells.
Assay [17] has the same target. Nature of the assay: Inhibition of RNA polymerase II in mouse B16-F1 migrating cells assessed as fold change in Ptpn12-RNA stability at 0.1 mM measured by ChIP-seq analysis relative to control cells.
Assay [18] has the same target. Nature of the assay: Inhibition of RNA polymerase II in mouse B16-F1 migrating cells assessed as fold change in Smc3-RNA stability at 0.1 mM measured by ChIP-seq analysis relative to control cells.
Assay [19] shares this target. Nature of the assay: Inhibition of RNA polymerase II in mouse B16-F1 migrating cells assessed as fold change in Dbt-RNA stability at 0.1 mM measured by ChIP-seq analysis relative to control cells.
Assay [20] has the same target. The experiment in a line: Inhibition of RNA polymerase II in mouse B16-F1 migrating cells assessed as fold change in C330027C09Rik-RNA stability at 0.1 mM measured by ChIP-seq analysis relative to control cells.
The target in assay [21] is Histone-lysine N-methyltransferase EZH2 (Mus musculus) (UniProt Q61188). Nature of the assay: Inhibition of EZH2 in mouse B16-F1 migrating cells assessed as fold change in H3K27me3-buffered regulated Rasd2-mRNA expression at 3 uM measured by ChIP-seq analysis relative to control cells.
The target is the same in assay [22]. Nature of the assay: Inhibition of EZH2 in mouse B16-F1 migrating cells assessed as fold change in H3K27me3-buffered regulated Plk3-mRNA expression at 3 uM measured by ChIP-seq analysis relative to control cells.
For assay [23] the target is unchanged. The experiment in a line: Inhibition of EZH2 in mouse B16-F1 migrating cells assessed as fold change in H3K27me3-buffered regulated Spry1-mRNA expression at 3 uM measured by ChIP-seq analysis relative to control cells.
Assay [24] shares this target. Nature of the assay: Inhibition of EZH2 in mouse B16-F1 migrating cells assessed as fold change in H3K27me3-buffered regulated C330027C09Rik-mRNA expression at 3 uM measured by ChIP-seq analysis relative to control cells.
Assay [25] has the same target. The experiment in a line: Inhibition of EZH2 in mouse B16-F1 migrating cells assessed as fold change in H3K27me3-buffered regulated Zfp217-mRNA expression at 3 uM measured by ChIP-seq analysis relative to control cells.
The target is the same in assay [26]. Nature of the assay: Inhibition of EZH2 in mouse B16-F1 migrating cells assessed as fold change in H3K27me3-buffered regulated Epha7-mRNA expression at 3 uM measured by ChIP-seq analysis relative to control cells.
For assay [27] the target is unchanged. The experiment in a line: Inhibition of EZH2 in mouse B16-F1 migrating cells assessed as fold change in H3K27me3-buffered regulated Frmd6-mRNA expression at 3 uM measured by ChIP-seq analysis relative to control cells.
Assay [28] has the same target. Nature of the assay: Inhibition of EZH2 in mouse B16-F1 migrating cells assessed as fold change in H3K27me3-buffered regulated Sema4c-mRNA expression at 3 uM measured by ChIP-seq analysis relative to control cells.
Assay [29] has the same target. The experiment in a line: Inhibition of EZH2 in mouse B16-F1 migrating cells assessed as fold change in H3K27me3-buffered regulated Kif18a-mRNA expression at 3 uM measured by ChIP-seq analysis relative to control cells.
Assay [30] has the same target. Nature of the assay: Inhibition of EZH2 in mouse B16-F1 migrating cells assessed as fold change in H3K27me3-buffered regulated 4933415A04Rik-mRNA expression at 3 uM measured by ChIP-seq analysis relative to control cells.

In the case of `OC[C@H]1O[C@@H](n2cnc3cc(Cl)c(Cl)cc32)[C@H](O)[C@@H]1O`, the log2FC is 0.54 in assay [1]; 0.52 in assay [2]; 0.48 in assay [3]; 0.44 in [4]; -0.41 in [5]; -0.44 in [6]. In addition, the log2FC in [7] was -0.47; in assay [8], -0.54; in assay [9], -0.54; in [10], -0.56; in [11], -0.57; in assay [12], -0.58. The log2FC is -0.6 in assay [13]; -0.62 in assay [14]; -0.65 in [15]; -0.66 in [16]; -0.66 in assay [17]; -0.66 in [18]. For the same molecule, the results for the log2FC in assay [19] and in assay [20] were -0.86 and -0.93, respectively.

Consider `CCCc1cc(C)[nH]c(=O)c1CNC(=O)c1cc(-c2ccnc(N3CCN(C)CC3)c2)cc2c1cnn2C(C)C`, for which the log2FC in [21] is 0.59; in assay [22], 0.46; in assay [23] it was -0.41; in assay [24], -0.43; in assay [25], -0.43; in assay [26], -0.49. Further, the log2FC in [27] was -0.56; in assay [28], -0.56; in [29] it was -0.6; in assay [30], -0.89.
